The nature of the assay: qHTS Assay for Lipid Storage Modulators in Drosophila S3 Cells.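 On cell number change: cells counted by Cell Tracker Red CMTPX staining in the red channel.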 Particulars: BODIPY lipid droplet fluorescence, 18-24 h; for cell number change: measured here: cell count max response, cells fed with added oleic acid. In a few lines:
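Drosophila S3 cells got compounds at several concentrations plus oleic acid (400 uM solution). Laser-scanning cytometry with 488 nm excitation read lipid droplets at 500-530 nm and cells at 575-640 nm. Percent activity was relative to 20 uM Triacsin C.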

[1] abbreviates: measured here: cell number channel AC50, cells fed with added oleic acid.
[2] abbreviates: measured here: lipid fluorescence (Fed channel) AC50, cells fed with added oleic acid.

Molecules are shown by their SMILES. This is one part of the list. Further columns of the screen follow, without active or inactive calls. The list favours compounds with an active or inconclusive main result. Potencies come from curve fits of mixed quality, noted in brackets.

With `COc1ccc(OC)c(CN2CCN(C(=O)c3cccc(S(=O)(=O)Nc4ccc(C)cc4)c3)CC2)c1`, the cell number change was -34.2%. Under setting [1], the AC50 is 14.6 µM [falling, partial curve, poor fit]. Besides, under setting [2], the half-maximal activity concentration (AC50) is 8.2 µM [falling, partial curve].
With `CCOC(=O)C1CCN(S(=O)(=O)c2cccc(-c3cn4cccc(C)c4n3)c2)CC1`, the cell number change is -13.7%.
With `O=C(CCCn1cc([N+](=O)[O-])cn1)Nc1cccnc1`, the cell number change is -16%.
Turning to `C=CCn1c(SCC(=O)Nc2cccc(S(=O)(=O)N(C)c3ccccc3)c2)nnc1C1CC1`, the cell number change is -34%. For the same compound, under setting [1], the AC50 was 6.51 µM [falling, partial curve].
Consider `COc1cccc(C2c3c(-c4cc(Cl)c(C)cc4O)n[nH]c3C(=O)N2Cc2cccnc2)c1` (stereo not given), for which the cell number change is 53.9%. Further, the half-maximal activity concentration (AC50) under setting [1] was 8.2 µM [rising, partial curve, poor fit].
For the compound `CC(C)(C)NC(=O)C(=O)NN=C1CCCCCCC1`, the cell number change is -52.5%. The AC50 under setting [1] is 29.1 µM [falling, single point].
As for `CC(Oc1ccc2c3c(c(=O)oc2c1)CCCC3)C(=O)NC1CC(C)(C)NC(C)(C)C1` (stereo not given), the cell number change was found to be 9.24%.
For the compound `CC(C)C(C)NC(=O)CSc1ccc(S(=O)(=O)N2CCOCC2)cn1` (stereo not given), the cell number change was found to be 1.3%. The AC50 under setting [2] was 0.13 µM [falling, full curve, poor fit].
As to `CN(C)/C=N/c1ncc(-c2ncc(C(F)(F)F)cc2Cl)cn1`, the cell number change was -50%. The concentration at half-maximal activity (AC50) under setting [1] was 25.9 µM [falling, partial curve]. Further, the AC50 under setting [2] is 14.6 µM [falling, partial curve].
Turning to `O=C(c1ccc([N+](=O)[O-])cc1)N1CCN(C2=NS(=O)(=O)c3ccccc32)CC1`, the cell number change came to 3.24%. The AC50 under setting [2] was 0.794 µM [rising, full curve, poor fit].
Consider `O=S1(=O)CCN(C(CCO)c2cccc(C(F)(F)F)c2)CC1` (stereo not given), for which the cell number change came to 16.4%. For the same compound, under setting [2], the AC50 was 0.164 µM [falling, full curve].
On to `CNC(=O)C1CCN(S(=O)(=O)c2c(C)noc2/C=C/c2cccc(OC)c2)CC1`, for which the cell number change is 10.4%. Besides, the AC50 under setting [2] is 29.1 µM [falling, single point].
With `COc1cccc(-n2nc(C(=O)NCC3CCCO3)c3ccccc3c2=O)c1` (stereo not given), the cell number change came to 29.3%.
On the same count and under the same terms, the figure for `O=C(CCCc1ccccc1)NCc1ccc2c(c1)OCO2` is 2.65%.
As to `Cc1cccc(Nc2nc(-c3ccccn3)cs2)n1`, the cell number change is -56.7%. Moreover, the AC50 under setting [1] was 14.6 µM [falling, partial curve].
Turning to `Cc1cc(OCC(O)CN2CCN(C)CC2)ccc1C(C)C` (stereo not given), the cell number change is -0.256%.
Turning to `COc1ccccc1Oc1ccc2c(c1)C(=O)N(c1ccc(C)cc1)C2=O`, the cell number change is -7.28%.
Consider `CC(C(=O)OCC(=O)c1ccc(F)cc1)N1C(=O)C2C3C=CC(C3)C2C1=O` (stereo not given), for which the cell number change is 9.21%.
With `CC(/C=C/c1ccccc1)=N/NC(=O)C(O)c1ccccc1` (stereo not given), the cell number change worked out at 8.51%.
`CCCCNC(=O)c1c(O)c2cccc3c2n(c1=O)CCC3`: the concentration at half-maximal activity (AC50) under setting [1] is 0.231 µM [rising, partial curve, poor fit] and the AC50 under setting [2] was 10.3 µM [rising, partial curve].
In the case of `Cc1nc2ccc(NS(=O)(=O)c3c(C)c(C)cc(C)c3C)cc2s1`, the cell number change was 61.8%. The AC50 under setting [1] was 25.9 µM [rising, partial curve]. In addition, the AC50 under setting [2] was 1.64 µM [rising, full curve].
Take `Cc1sc2nc(SCC(=O)NCCOCCO)nc(N)c2c1C`: the cell number change is -7.2%. In addition, the AC50 under setting [2] was 0.82 µM [falling, full curve].
Take `COc1ccc(-c2coc3c(CN4CCCCC4)c(O)c(CN4CCCCC4)c(O)c3c2=O)cc1`: the cell number change is 107%. Further, under setting [1], the AC50 is 29.1 µM [rising, single point]. Further, the AC50 under setting [2] is 0.731 µM [falling, partial curve].
Take `O=[N+]([O-])c1ccc(C2CCCC/C2=N/O)c([N+](=O)[O-])c1` (stereo not given): the cell number change worked out at 27.2%. Further, the concentration at half-maximal activity (AC50) under setting [2] is 23.1 µM [rising, single point].
For `O=C(CNCc1cccs1)Nc1ccc(S(=O)(=O)N2CCCCC2)cc1`, the cell number change worked out at 32.8%. Also, the concentration at half-maximal activity (AC50) under setting [1] is 13 µM [rising, single point].
On to `Cc1ccc(C(=O)Nc2ccc(Cl)cc2C)c(Cl)c1`, for which the cell number change stood at 26.4%. Moreover, under setting [2], the AC50 is 0.651 µM [falling, single point].
On to `CCOC(=O)NC(=O)/C(C#N)=C\Nc1ccc(Cl)cc1Cl`, for which the cell number change was -8.01%. Besides, the AC50 under setting [1] was 0.146 µM [falling, full curve, poor fit].
As to `O=C(NCC(=O)N1CCN(S(=O)(=O)c2ccccc2F)CC1)c1ccc(Br)o1`, the cell number change turned out to be 41.3%. For the same compound, the half-maximal activity concentration (AC50) under setting [2] was 11.6 µM [rising, partial curve, poor fit].
As to `CC(C)C(c1nnnn1Cc1ccccc1)N(Cc1ccco1)Cc1cccs1` (stereo not given), the cell number change is -9.75%. The half-maximal activity concentration (AC50) under setting [2] is 0.0058 µM [rising, full curve, poor fit].
With `CC(C)C(=O)NC(=S)Nc1c(Cl)ccc2nsnc12`, the cell number change was determined as 17.9%. Further, the concentration at half-maximal activity (AC50) under setting [2] was 0.116 µM [rising, full curve, poor fit].
Regarding `O=C(CCCC(=O)NC1CCCCC1)Nc1ccc([N+](=O)[O-])cc1`, the AC50 under setting [2] was 0.13 µM [falling, full curve].
On to `O=C(Cn1c(CO)nc2ccccc21)Nc1ccccc1Cl`, for which the AC50 by setting is: under setting [1], 1.84 µM [rising, single point]; under setting [2], 6.51 µM [rising, single point].
Regarding `CC(NC(=O)COc1ccccc1)C(c1cccs1)N1CCCC1` (stereo not given), the cell number change was 3.11%. For the same compound, the half-maximal activity concentration (AC50) under setting [2] is 0.13 µM [falling, full curve, poor fit].
In the case of `O=C(Nc1cccc(Cl)c1)N1CCN(Cc2ccccc2)CC1`, the cell number change is 19.5%. The concentration at half-maximal activity (AC50) under setting [2] was 29.1 µM [rising, single point].
In the case of `O=C(Nc1nnc(CC(=O)N2CCOCC2)s1)C1COc2ccccc2O1` (stereo not given), the cell number change was -1.12%.
Regarding `CC(NC(=O)COC(=O)c1cn(-c2ccccc2)nc1-c1cccs1)c1ccccc1` (stereo not given), the cell number change turned out to be 81.5%. For the same compound, the AC50 under setting [1] is 18.4 µM [rising, single point].
Regarding `CCc1ccc(NC2=NC(C(=O)c3ccccc3)CC(=O)N2)cc1` (stereo not given), the cell number change was -20.1%. The AC50 under setting [2] was 0.00731 µM [falling, full curve].
On to `Cc1nc2cc(-c3ccccc3)ccc2o1`, for which the cell number change was -15.5%.
Take `O=C(CSc1nnc(CN2CCOCC2)n1-c1ccc(Cl)cc1)Nc1cc(Cl)ccc1O`: the cell number change is -7.27%.
With `O=C(O)CCN=Cc1c(O)c2ccccc2oc1=O`, the cell number change is -6.74%. Also, under setting [2], the half-maximal activity concentration (AC50) was 29.1 µM [falling, single point].
Consider `CCN(Cc1nc2ccccc2n1C)c1ccccc1`, for which the cell number change was -9.12%. In addition, the concentration at half-maximal activity (AC50) under setting [2] was 29.1 µM [rising, single point].
`N#CCSc1nnc2ccc3ccccc3n12`: the cell number change amounted to 110%. Besides, the AC50 under setting [1] is 20.6 µM [rising, single point]. Besides, the concentration at half-maximal activity (AC50) under setting [2] is 29.1 µM [rising, single point].
For `CCc1nnc(NC(=O)CCC(=O)N2CCN(Cc3ccc(OC)c(F)c3)CC2)s1`, the cell number change was -3.36%.
`CCCCN(CC)CCNC(=O)c1cc2c(=O)n(C)c3ccccc3c2n1C`: the cell number change was found to be 48.4%. The AC50 under setting [1] is 6.51 µM [rising, full curve]. Besides, the half-maximal activity concentration (AC50) under setting [2] is 5.17 µM [rising, full curve].
As for `CN1CCN(C(=O)N2CCNC2=O)CC1`, the cell number change turned out to be 9.72%. For the same compound, the half-maximal activity concentration (AC50) under setting [2] was 16.4 µM [falling, single point].
Turning to `C=C(C)Cn1c(SCC)nc2ccccc2c1=O`, the cell number change amounted to 48.3%.
With `Cc1cc(C)nc(N2CCC(C(=O)NC3CCCc4ccccc43)CC2)n1` (stereo not given), the cell number change was 18.1%. Also, under setting [2], the half-maximal activity concentration (AC50) is 32.6 µM [falling, single point].
As for `CC(C)c1cc[n+](-c2nc([O-])sc2C=O)cc1`, the cell number change amounted to 5.8%. Also, the half-maximal activity concentration (AC50) under setting [2] was 6.51 µM [falling, single point].
Turning to `COc1ccccc1CNC(=O)Cn1cnc2ccccc2c1=O`, the cell number change stood at 4.04%. The AC50 under setting [2] is 4.61 µM [falling, single point].
On to `O=C(CCN1C(=O)c2ccc([N+](=O)[O-])cc2C1=O)Nc1ccc(O)cc1C(=O)O`, for which the cell number change is -5.18%.
For the compound `Cc1ccc(C(=O)N2CCCC2)cc1Br`, the cell number change is 0.26%. For the same compound, under setting [1], the concentration at half-maximal activity (AC50) is 0.00517 µM [falling, full curve, poor fit]. Also, the half-maximal activity concentration (AC50) under setting [2] was 0.184 µM [falling, full curve, poor fit].
For the compound `Cc1sc2nc(SCC(=O)N3CC(C)OC(C)C3)n(C)c(=O)c2c1C` (stereo not given), the cell number change is -12.6%.
Regarding `CC1CC(C)CN(C(=O)c2ccc(C#N)cc2)C1` (stereo not given), the cell number change was -23.8%. Besides, the AC50 under setting [2] is 13 µM [falling, partial curve].
`Cc1cc(NC(=O)CN2CCCCCCC2)no1`: the cell number change was -0.52%. Also, under setting [2], the AC50 was 0.00651 µM [falling, full curve, poor fit].
In the case of `O=[N+]([O-])c1cccc(NC(=S)N2CCN(c3ccccn3)CC2)c1`, the cell number change turned out to be 56.9%. In addition, under setting [1], the AC50 was 20.6 µM [rising, single point]. Also, the half-maximal activity concentration (AC50) under setting [2] is 29.1 µM [rising, single point].
As to `COc1ccc(S(=O)(=O)N2CCc3cc4c(cc3C2C)OCCCO4)cc1` (stereo not given), the cell number change was -21.5%. For the same compound, the AC50 under setting [2] is 0.58 µM [falling, single point].
For `Cc1ccc(C)c(C(=O)CSc2nc(N)cc(=O)[nH]2)c1`, the cell number change is -22.5%.
Turning to `CCn1cc(C(=O)N[C@@H](CC(C)C)C(=O)NCCCn2ccnc2)c(=O)c2cc3c(cc21)OCO3`, the cell number change turned out to be 0.472%. Also, under setting [1], the AC50 is 3.26 µM [rising, single point]. In addition, under setting [2], the concentration at half-maximal activity (AC50) is 29.1 µM [rising, partial curve].
With `Cc1csc(NC(=O)CSc2ncc(-c3ccccc3)[nH]2)n1`, the cell number change was -35.2%. For the same compound, the AC50 under setting [1] was 0.103 µM [falling, single point]. In addition, under setting [2], the AC50 was 8.2 µM [falling, single point].
Consider `O=C(N1CCOCC1)N1CCCC(c2nc(-c3cccs3)no2)C1` (stereo not given), for which the cell number change worked out at 4.1%.
As for `Cc1ccccc1NC(=O)NCCCN1CCN(c2ccccc2)CC1`, the cell number change came out at 111%. The concentration at half-maximal activity (AC50) under setting [1] was 7.31 µM [rising, partial curve]. Further, the AC50 under setting [2] is 2.91 µM [rising, partial curve].
For `COCc1c(C)cc(C)c(/C=N/O)c1C`, the cell number change amounted to 33.6%. The concentration at half-maximal activity (AC50) under setting [1] is 6.51 µM [rising, partial curve, poor fit]. Besides, the AC50 under setting [2] is 20.6 µM [rising, single point].
Take `CCCC(C(=O)NCc1ccco1)N(Cc1ccco1)C(=O)CNS(=O)(=O)c1ccccc1` (stereo not given): the cell number change came to 13.4%.
Turning to `C/C(CC(C)C)=N\NC(=O)Nc1ccccc1`, the cell number change is -25.8%. In addition, the AC50 under setting [2] was 18.4 µM [falling, single point].

As a reminder, the AC50 is the midpoint of the concentration-response curve, whichever way the signal moves. The low end stands for greater potency, the high end for weaker potency.

The values above are taken from PubChem BioAssay AID2685 (National Center for Advancing Translational Sciences (NCATS), 2010).
